# This is one part of the list.
# Tests used:
# Assay in all cases: glycan array binding signal (z-score within array); higher = stronger binding
# Settings in all cases: glycan notation: IUPAC condensed, linker removed
# GlcNAc(b1-3)Fuc = molecular target: GlcNAc(b1-3)Fuc
# Outline: (§1)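 Arrays were curated from the Consortium for Functional Glycomics database, 3228 in total, and kept only where the protein sequence was available. Binding is expressed as a within-array Z-score. This score was averaged across arrays of the same protein sequence at different concentrations or buffers and across linkers, and negative values can be read as non-binding.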
# GlcNAc(b1-3)Gal = molecular target: GlcNAc(b1-3)Gal
# Outline: as §1
# [1] = molecular target: GlcNAc(b1-3)Gal(b1-3)GalNAc
# Outline: as §1
# GlcNAc(b1-3)Gal(b1-4)Glc = molecular target: GlcNAc(b1-3)Gal(b1-4)Glc
# Outline: as §1
# [2] = molecular target: GlcNAc(b1-3)Gal(b1-4)GlcNAc
# Outline: as §1
# [3] = molecular target: GlcNAc(b1-3)Gal(b1-4)GlcNAc(b1-2)Man(a1-3)[GlcNAc(b1-3)Gal(b1-4)GlcNAc(b1-2)Man(a1-6)]Man(b1-4)GlcNAc(b1-4)GlcNAc
# Outline: as §1
# [4] = molecular target: GlcNAc(b1-3)Gal(b1-4)GlcNAc(b1-2)Man(a1-3)[GlcNAc(b1-3)Gal(b1-4)GlcNAc(b1-2)Man(a1-6)]Man(b1-4)GlcNAc(b1-4)[Fuc(a1-6)]GlcNAc
# Outline: as §1
# [5] = molecular target: GlcNAc(b1-3)Gal(b1-4)GlcNAc(b1-2)[GlcNAc(b1-3)Gal(b1-4)GlcNAc(b1-6)]Man(a1-6)[GlcNAc(b1-3)Gal(b1-4)GlcNAc(b1-2)Man(a1-3)]Man(b1-4)GlcNAc(b1-4)GlcNAc
# Outline: as §1
# [6] = molecular target: GlcNAc(b1-3)Gal(b1-4)GlcNAc(b1-3)Gal(b1-4)GlcNAc
# Outline: as §1
# [7] = molecular target: GlcNAc(b1-3)Gal(b1-4)GlcNAc(b1-3)Gal(b1-4)GlcNAc(b1-2)Man(a1-3)[GlcNAc(b1-3)Gal(b1-4)GlcNAc(b1-3)Gal(b1-4)GlcNAc(b1-2)Man(a1-6)]Man(b1-4)GlcNAc(b1-4)GlcNAc
# Outline: as §1
# [8] = molecular target: GlcNAc(b1-3)Gal(b1-4)GlcNAc(b1-3)Gal(b1-4)GlcNAc(b1-2)Man(a1-3)[GlcNAc(b1-3)Gal(b1-4)GlcNAc(b1-3)Gal(b1-4)GlcNAc(b1-2)Man(a1-6)]Man(b1-4)GlcNAc(b1-4)[Fuc(a1-6)]GlcNAc
# Outline: as §1
# [9] = molecular target: GlcNAc(b1-3)Gal(b1-4)GlcNAc(b1-3)Gal(b1-4)GlcNAc(b1-2)[GlcNAc(b1-3)Gal(b1-4)GlcNAc(b1-3)Gal(b1-4)GlcNAc(b1-6)]Man(a1-6)[GlcNAc(b1-3)Gal(b1-4)GlcNAc(b1-3)Gal(b1-4)GlcNAc(b1-2)Man(a1-3)]Man(b1-4)GlcNAc(b1-4)[Fuc(a1-6)]GlcNAc
# Outline: as §1
# [10] = molecular target: GlcNAc(b1-3)Gal(b1-4)GlcNAc(b1-3)Gal(b1-4)GlcNAc(b1-3)Gal(b1-4)GlcNAc(b1-2)Man(a1-3)[GlcNAc(b1-3)Gal(b1-4)GlcNAc(b1-3)Gal(b1-4)GlcNAc(b1-3)Gal(b1-4)GlcNAc(b1-2)Man(a1-6)]Man(b1-4)GlcNAc(b1-4)GlcNAc
# Outline: as §1
# [11] = molecular target: GlcNAc(b1-3)Gal(b1-4)GlcNAc(b1-3)Gal(b1-4)GlcNAc(b1-3)Gal(b1-4)GlcNAc(b1-2)Man(a1-3)[GlcNAc(b1-3)Gal(b1-4)GlcNAc(b1-3)Gal(b1-4)GlcNAc(b1-3)Gal(b1-4)GlcNAc(b1-2)Man(a1-6)]Man(b1-4)GlcNAc(b1-4)[Fuc(a1-6)]GlcNAc
# Outline: as §1
# [12] = molecular target: GlcNAc(b1-3)Gal(b1-4)GlcNAc(b1-3)Gal(b1-4)GlcNAc(b1-3)Gal(b1-4)GlcNAc(b1-2)[GlcNAc(b1-3)Gal(b1-4)GlcNAc(b1-3)Gal(b1-4)GlcNAc(b1-3)Gal(b1-4)GlcNAc(b1-6)]Man(a1-6)[GlcNAc(b1-3)Gal(b1-4)GlcNAc(b1-3)Gal(b1-4)GlcNAc(b1-3)Gal(b1-4)GlcNAc(b1-2)Man(a1-3)]Man(b1-4)GlcNAc(b1-4)[Fuc(a1-6)]GlcNAc
# Outline: as §1
# [13] = molecular target: GlcNAc(b1-3)Gal(b1-4)GlcNAc(b1-3)Gal(b1-4)GlcNAc(b1-3)Gal(b1-4)GlcNAc(b1-3)Gal(b1-4)GlcNAc(b1-2)Man(a1-3)[GlcNAc(b1-3)Gal(b1-4)GlcNAc(b1-3)Gal(b1-4)GlcNAc(b1-3)Gal(b1-4)GlcNAc(b1-3)Gal(b1-4)GlcNAc(b1-2)Man(a1-6)]Man(b1-4)GlcNAc(b1-4)GlcNAc
# Outline: as §1
# [14] = molecular target: GlcNAc(b1-3)Gal(b1-4)GlcNAc(b1-3)Gal(b1-4)GlcNAc(b1-3)Gal(b1-4)GlcNAc(b1-3)Gal(b1-4)GlcNAc(b1-2)Man(a1-3)[GlcNAc(b1-3)Gal(b1-4)GlcNAc(b1-3)Gal(b1-4)GlcNAc(b1-3)Gal(b1-4)GlcNAc(b1-3)Gal(b1-4)GlcNAc(b1-2)Man(a1-6)]Man(b1-4)GlcNAc(b1-4)[Fuc(a1-6)]GlcNAc
# Outline: as §1
# [15] = molecular target: GlcNAc(b1-3)Gal(b1-4)GlcNAc(b1-3)Gal(b1-4)GlcNAc(b1-3)Gal(b1-4)GlcNAc(b1-3)Gal(b1-4)GlcNAc(b1-2)[GlcNAc(b1-3)Gal(b1-4)GlcNAc(b1-3)Gal(b1-4)GlcNAc(b1-3)Gal(b1-4)GlcNAc(b1-3)Gal(b1-4)GlcNAc(b1-6)]Man(a1-6)[GlcNAc(b1-3)Gal(b1-4)GlcNAc(b1-3)Gal(b1-4)GlcNAc(b1-3)Gal(b1-4)GlcNAc(b1-3)Gal(b1-4)GlcNAc(b1-2)Man(a1-3)]Man(b1-4)GlcNAc(b1-4)[Fuc(a1-6)]GlcNAc
# Outline: as §1
# [16] = molecular target: GlcNAc(b1-3)Gal(b1-4)GlcNAc(b1-3)Gal(b1-4)GlcNAc(b1-3)GalNAc
# Outline: as §1
# [17] = molecular target: GlcNAc(b1-3)Gal(b1-4)GlcNAc(b1-3)GalNAc
# Outline: as §1
# [18] = molecular target: GlcNAc(b1-3)Gal(b1-4)GlcNAc(b1-3)[GlcNAc(b1-3)Gal(b1-4)GlcNAc(b1-3)]GalNAc
# Outline: as §1
# [19] = molecular target: GlcNAc(b1-3)Gal(b1-4)GlcNAc(b1-6)[Gal(b1-3)]GalNAc
# Outline: as §1
# [20] = molecular target: GlcNAc(b1-3)Gal(b1-4)GlcNAc(b1-6)[GlcNAc(b1-3)Gal(b1-3)]GalNAc
# Outline: as §1
# [21] = molecular target: GlcNAc(b1-3)Gal(b1-4)GlcNAc(b1-6)[GlcNAc(b1-3)]Gal(b1-4)GlcNAc
# Outline: as §1
# GlcNAc(b1-3)GalNAc = molecular target: GlcNAc(b1-3)GalNAc
# Outline: as §1
# GlcNAc(b1-3)Man = molecular target: GlcNAc(b1-3)Man
# Outline: as §1
# [22] = molecular target: GlcNAc(b1-3)[GlcNAc(b1-4)][GlcNAc(b1-6)]GlcNAc
# Outline: as §1
# [23] = molecular target: GlcNAc(b1-3)[GlcNAc(b1-6)]Gal(b1-4)GlcNAc
# Outline: as §1
# [24] = molecular target: GlcNAc(b1-3)[GlcNAc(b1-6)]GalNAc
# Outline: as §1
# [25] = molecular target: GlcNAc(b1-4)Gal(b1-4)GlcNAc
# Outline: as §1
# GlcNAc(b1-4)GlcNAc = molecular target: GlcNAc(b1-4)GlcNAc
# Outline: as §1
# [26] = molecular target: GlcNAc(b1-4)GlcNAc(b1-4)GlcNAc
# Outline: as §1
# [27] = molecular target: GlcNAc(b1-4)GlcNAc(b1-4)GlcNAc(b1-4)GlcNAc(b1-4)GlcNAc
# Outline: as §1
# [28] = molecular target: GlcNAc(b1-4)GlcNAc(b1-4)GlcNAc(b1-4)GlcNAc(b1-4)GlcNAc(b1-4)GlcNAc
# Outline: as §1
# [29] = molecular target: GlcNAc(b1-4)[GlcNAc(b1-6)]GalNAc
# Outline: as §1
# [30] = molecular target: GlcNAc(b1-6)Gal(b1-4)GlcNAc
# Outline: as §1
# GlcNAc(b1-6)GalNAc = molecular target: GlcNAc(b1-6)GalNAc
# Outline: as §1
# GlcNAc3Prop(b1-4)GlcNAc = molecular target: GlcNAc3Prop(b1-4)GlcNAc
# Outline: as §1
# [31] = molecular target: GlcNAc6S(b1-3)Gal(b1-4)GlcNAc
# Outline: as §1
# Kdn(a2-3)Gal(b1-3)GalNAc = molecular target: Kdn(a2-3)Gal(b1-3)GalNAc
# Outline: as §1
# Kdn(a2-3)Gal(b1-3)GlcNAc = molecular target: Kdn(a2-3)Gal(b1-3)GlcNAc
# Outline: as §1
# Kdn(a2-3)Gal(b1-4)Glc = molecular target: Kdn(a2-3)Gal(b1-4)Glc
# Outline: as §1
# Kdn(a2-3)Gal(b1-4)GlcNAc = molecular target: Kdn(a2-3)Gal(b1-4)GlcNAc
# Outline: as §1
# [32] = molecular target: Kdn(a2-3)Gal(b1-4)[Fuc(a1-3)]GlcNAc
# Outline: as §1
# Kdn(a2-6)Gal(b1-4)GlcNAc = molecular target: Kdn(a2-6)Gal(b1-4)GlcNAc
# Outline: as §1
# [33] = molecular target: Man(a1-2)Man(a1-2)Man(a1-3)Man
# Outline: as §1
# [34] = molecular target: Man(a1-2)Man(a1-2)Man(a1-6)[Man(a1-3)]Man
# Outline: as §1
# Man(a1-2)Man(a1-3)Man = molecular target: Man(a1-2)Man(a1-3)Man
# Outline: as §1
# [35] = molecular target: Man(a1-2)Man(a1-3)[Man(a1-2)Man(a1-6)]Man
# Outline: as §1
# [36] = molecular target: Man(a1-2)Man(a1-3)[Man(a1-2)Man(a1-6)]Man(a1-6)[Man(a1-2)Man(a1-2)Man(a1-3)]Man
# Outline: as §1
# [37] = molecular target: Man(a1-2)Man(a1-3)[Man(a1-2)Man(a1-6)]Man(a1-6)[Man(a1-2)Man(a1-2)Man(a1-3)]Man(b1-4)GlcNAc(b1-4)GlcNAc
# Outline: as §1
binder,measurement,setting,value
KILRGVCKKIMRTFLRRISKDILTGKK [NK2 (Sus scrofa)],glycan array binding signal (z-score),GlcNAc(b1-3)Fuc,-1.83
same,glycan array binding signal (z-score),GlcNAc(b1-3)Gal,-0.759
same,glycan array binding signal (z-score),[1],-0.538
same,glycan array binding signal (z-score),GlcNAc(b1-3)Gal(b1-4)Glc,-0.244
same,glycan array binding signal (z-score),[2],-0.313
same,glycan array binding signal (z-score),[3],-0.892
same,glycan array binding signal (z-score),[4],1.49
same,glycan array binding signal (z-score),[5],0.504
same,glycan array binding signal (z-score),[6],-0.623
same,glycan array binding signal (z-score),[7],-0.06
same,glycan array binding signal (z-score),[8],0.832
same,glycan array binding signal (z-score),[9],-1.17
same,glycan array binding signal (z-score),[10],-0.358
same,glycan array binding signal (z-score),[11],-0.197
same,glycan array binding signal (z-score),[12],-0.914
same,glycan array binding signal (z-score),[13],-0.263
same,glycan array binding signal (z-score),[14],-0.965
same,glycan array binding signal (z-score),[15],0.559
same,glycan array binding signal (z-score),[16],-0.075
same,glycan array binding signal (z-score),[17],-0.331
same,glycan array binding signal (z-score),[18],0.417
same,glycan array binding signal (z-score),[19],1.7
same,glycan array binding signal (z-score),[20],0.144
same,glycan array binding signal (z-score),[21],0.081
same,glycan array binding signal (z-score),GlcNAc(b1-3)GalNAc,-1.05
same,glycan array binding signal (z-score),GlcNAc(b1-3)Man,0.307
same,glycan array binding signal (z-score),[22],-0.366
same,glycan array binding signal (z-score),[23],-0.028
same,glycan array binding signal (z-score),[24],-0.326
same,glycan array binding signal (z-score),[25],0.592
same,glycan array binding signal (z-score),GlcNAc(b1-4)GlcNAc,0.043
same,glycan array binding signal (z-score),[26],-0.553
same,glycan array binding signal (z-score),[27],0.06
same,glycan array binding signal (z-score),[28],0.218
same,glycan array binding signal (z-score),[29],-1.1
same,glycan array binding signal (z-score),[30],-0.829
same,glycan array binding signal (z-score),GlcNAc(b1-6)GalNAc,-0.221
same,glycan array binding signal (z-score),GlcNAc3Prop(b1-4)GlcNAc,0.373
same,glycan array binding signal (z-score),[31],-0.015
same,glycan array binding signal (z-score),Kdn(a2-3)Gal(b1-3)GalNAc,0.423
same,glycan array binding signal (z-score),Kdn(a2-3)Gal(b1-3)GlcNAc,-0.323
same,glycan array binding signal (z-score),Kdn(a2-3)Gal(b1-4)Glc,0.105
same,glycan array binding signal (z-score),Kdn(a2-3)Gal(b1-4)GlcNAc,-0.758
same,glycan array binding signal (z-score),[32],-0.406
same,glycan array binding signal (z-score),Kdn(a2-6)Gal(b1-4)GlcNAc,0.619
same,glycan array binding signal (z-score),[33],-0.819
same,glycan array binding signal (z-score),[34],0.695
same,glycan array binding signal (z-score),Man(a1-2)Man(a1-3)Man,-1.35
same,glycan array binding signal (z-score),[35],-1.11
same,glycan array binding signal (z-score),[36],-1.08
same,glycan array binding signal (z-score),[37],0.064

# Looked up one by one from above (3):
binder,measurement,setting,value
KILRGVCKKIMRTFLRRISKDILTGKK [NK2 (Sus scrofa)],glycan array binding signal (z-score),[22],-0.366
same,glycan array binding signal (z-score),[13],-0.263
same,glycan array binding signal (z-score),[10],-0.358
